Primary screen of a compound library

Source: ChEMBL document CHEMBL3988442, “University of Dundee, Small-Polar-MMV Screening Library” (2021).

Mtb growth Cornell: 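Whole-cell assay for inhibitors of Mycobacterium tuberculosis growth, labelled Cornell in the record; the read-out is not stated. The concentration is filed as 10 mM, unlikely as a test dose, so the dose is not known. Higher means stronger inhibition (inferred from two other growth screens of the library). Of about 53,000 compounds tested this way, about 900 (1.7%) reached 50% or more in at least one test.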
Mtb heat-shock: 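Assay on Mycobacterium tuberculosis, filed only as a heat shock assay from Cornell; the read-out is not stated. The concentration is filed as 10 mM, unlikely as a test dose, so the dose is not known. The record gives no direction; compounds that gave an IC50 in retests scored well above the rest, so higher reads as stronger inhibition. Of about 69,000 compounds tested this way, about 930 (1.4%) reached 50% or more in at least one test.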

Values are the deposited “Percent Effect”, in %.
The record does not define 0% and 100%; most values in the screen are far below 50% and negative numbers occur (in some assays of this library far below -100).
The compounds are a random part of those screened.
A dash means the value is not listed here; it may have been measured.

{"structure": "CC1=C(c2ccc(C(C)C)cc2)S(=O)(=O)N=C1N1CCc2ccccc21", "Mtb growth Cornell": -17.71, "Mtb heat-shock": 1.414}
{"structure": "CN1CCOC(C(=O)Nc2ccc3c(c2)nc(C2CC2)n3C)C1", "stereo": "centres undefined", "Mtb growth Cornell": 32.22, "Mtb heat-shock": -31.45}
{"structure": "Cc1c(Cl)cccc1NC(=O)CCNc1ccc(C#N)cn1", "Mtb growth Cornell": 23.43, "Mtb heat-shock": 18.54}
{"structure": "CCCc1cnc(C)nc1NCCc1nc(C)cc(=O)[nH]1", "Mtb growth Cornell": -0.6702, "Mtb heat-shock": 27.91}
{"structure": "CCOc1ccnc(N2CCN(C(=O)c3ccoc3)CC2)n1", "Mtb growth Cornell": -12.48, "Mtb heat-shock": -23.42}
{"structure": "Cc1nc(C)n(CC2CCCN2CC(=O)Nc2cccnc2)n1", "stereo": "centres undefined", "Mtb growth Cornell": 4.165, "Mtb heat-shock": -14}
{"structure": "Cc1n[nH]c(C2CN(C(=O)c3coc(Br)c3)CCO2)n1", "stereo": "centres undefined", "Mtb growth Cornell": 11.38, "Mtb heat-shock": -2.848}
{"structure": "[H][C@]12CC[C@@]3(N=C(C)N(CC(C)C)C3=O)[C@@]1([H])CN(S(=O)(=O)C1CC1)C2", "Mtb growth Cornell": -25.11, "Mtb heat-shock": -17.01}
{"structure": "Cc1ccc(CN(Cc2nc3c(cnn3C)c(=O)[nH]2)C(C)C)s1", "Mtb heat-shock": -2.161}
{"structure": "c1ccc(-n2ccc(CNC3CCc4ncnn4C3)n2)cc1", "stereo": "centres undefined", "Mtb heat-shock": -1.08}
{"structure": "CN1C(=O)C2(CC(=O)Nc3c2cnn3C(C)(C)C)c2c(Cl)cccc21", "stereo": "centres undefined", "Mtb growth Cornell": 11.37, "Mtb heat-shock": -33.21}
{"structure": "O=C1NCCN(Cc2ccoc2)C1CC(=O)N1CCc2sccc2C1", "stereo": "centres undefined", "Mtb growth Cornell": -6.912, "Mtb heat-shock": -16}
{"structure": "COc1cc2nc(C)n(CC(=O)O)c(=O)c2cc1OC", "Mtb heat-shock": 21.48}
{"structure": "Cc1nc(C)c(C(=O)N2CCc3nnc(C4CCCN4C)n3CC2)s1", "stereo": "centres undefined", "Mtb growth Cornell": 53.89, "Mtb heat-shock": -10.47}
{"structure": "CCN1CCc2c(c(COC)nn2C)C1", "Mtb heat-shock": 16.81}
{"structure": "Cc1noc(C)c1CNC(=O)N(C)C1CCN(c2ccccc2)C1=O", "stereo": "centres undefined", "Mtb heat-shock": 7.316}
{"structure": "CNc1nc(N2CCC3(CCCNC3=O)C2)nc2c1CCC2", "stereo": "centres undefined", "Mtb growth Cornell": 10.03, "Mtb heat-shock": -1.041}
{"structure": "[H][C@@]12CCCCN(C)[C@]1([H])[C@@H](c1ccccc1)CCN2C(=O)c1ccccc1", "Mtb growth Cornell": 17.87, "Mtb heat-shock": 40.07}
{"structure": "Cl.Cl.O=C(NCc1cncc2c1CCN(Cc1cccc(F)c1)C2)C1CC1", "Mtb growth Cornell": 30.36, "Mtb heat-shock": -19.63}
{"structure": "Cc1cc(CN2CCN(C(=O)C3(C#N)CCCC3)CC2)on1", "Mtb growth Cornell": 3.868, "Mtb heat-shock": -26.47}
{"structure": "Cc1cccc(C2(CNC(=O)c3ccnc(N(C)C)c3)CCOCC2)c1", "Mtb growth Cornell": -9.18, "Mtb heat-shock": -13.64}
{"structure": "CC(C)c1nnc(NC(=O)CSCc2cc(=O)n3ccccc3n2)s1", "Mtb heat-shock": -25.65}
{"structure": "COc1ccnc(N2CCN(C(=O)c3csnn3)CC2)n1", "Mtb heat-shock": 6.489}
{"structure": "Cc1nc(C)c(CN2CCC(N(C)Cc3nnc(C4CC4)o3)C2)s1", "stereo": "centres undefined", "Mtb heat-shock": 13.55}
{"structure": "CC(C)NC(=O)CCN1CCC(C(=O)c2cc(F)ccc2F)CC1", "Mtb growth Cornell": 12.12, "Mtb heat-shock": -9.312}
{"structure": "COc1ccc(CN2CCC(c3nccnc3-n3ccnc3)CC2)cc1", "Mtb growth Cornell": -10.54, "Mtb heat-shock": -9.3}
{"structure": "CNCCNc1nccc(-c2cn(C)nc2C)n1", "Mtb heat-shock": 6.043}
{"structure": "Cc1cccc(CN2CCCC2(C(N)=O)c2cnccn2)n1", "stereo": "centres undefined", "Mtb growth Cornell": -36.3, "Mtb heat-shock": -22.79}
{"structure": "Cc1cc(C(C)NC(=O)c2ccc(O)nc2)c(C)o1", "stereo": "centres undefined", "Mtb growth Cornell": -8.816, "Mtb heat-shock": 4.888}
{"structure": "Cc1ccc2nc(C3CCCN(CC(C)C)C3)nc(O)c2c1", "stereo": "centres undefined", "Mtb heat-shock": -3.569}
{"structure": "[H][C@@]12CN(C(=O)c3ccoc3COc3ccc(C)cc3)C[C@]1([H])[C@H]2CN(C)C", "Mtb heat-shock": -7.572}
{"structure": "Cc1nc(CN2CCCC(NCc3cccc4ccccc34)C2)no1", "stereo": "centres undefined", "Mtb growth Cornell": -19.98, "Mtb heat-shock": -13.21}
{"structure": "Cc1cc(NCCOCCS(C)(=O)=O)nc2ccccc12", "Mtb growth Cornell": 14.99, "Mtb heat-shock": -7.37}
{"structure": "O=S(=O)(NCC1CCN(c2cnccn2)CC1)c1c(F)cccc1F", "Mtb growth Cornell": 28.72, "Mtb heat-shock": 1.825}
{"structure": "Cc1nnc(N2CCCC3(CN(Cc4nccs4)CCO3)C2)o1.O=C(O)C(F)(F)F.O=C(O)C(F)(F)F", "stereo": "centres undefined", "Mtb growth Cornell": -50.23, "Mtb heat-shock": -34.51}
{"structure": "COc1cccc(Cc2nc3c([nH]2)CC(C)(C)CNC3=O)c1OC", "Mtb growth Cornell": 6.024, "Mtb heat-shock": -18.61}
{"structure": "COc1ccc(CN2CCN(C(C)c3nc(C4CC4)no3)CC2)cc1", "stereo": "centres undefined", "Mtb growth Cornell": 0.9111, "Mtb heat-shock": 26.63}
{"structure": "O=C(O)C(F)(F)F.O=C(O)C(F)(F)F.O=C(O)C(F)(F)F.[H][C@@]12CN(Cc3cccnc3)C[C@]1([H])[C@@H](OC)CCN2Cc1c(C)noc1C", "Mtb growth Cornell": 10.03, "Mtb heat-shock": 8.197}
{"structure": "CC(C)N1CCC(CC(=O)N(C)C(C)c2cncs2)CC1", "stereo": "centres undefined", "Mtb growth Cornell": 9.107, "Mtb heat-shock": -28.4}
{"structure": "O=C(CCCN1CCCCC1)N1CCN(C(=O)c2nc[nH]n2)CC1", "Mtb growth Cornell": 24.52, "Mtb heat-shock": 1.84}
{"structure": "COc1cccc(CNCc2cccnc2-n2cccn2)c1OC", "Mtb heat-shock": -22.26}
{"structure": "CC(O)CN1CCN(C(=O)c2cnc(OC(C)C)c(Cl)c2)CC1", "stereo": "centres undefined", "Mtb growth Cornell": 14.76, "Mtb heat-shock": -10.1}
{"structure": "[H][C@@]12C[C@H](C(=O)N(C)C)[C@@]([H])(CN(c3ncc(C)cn3)C1)O2", "Mtb growth Cornell": 7.084, "Mtb heat-shock": -0.8351}
{"structure": "CCN(C)CC(=O)N1CCc2nc(NC)nc(C(=O)N3CCCC3)c2C1", "Mtb growth Cornell": 28.48, "Mtb heat-shock": 1.32}
{"structure": "Cc1cc(CN(C)Cc2cc3c(cc2OC(F)F)OCO3)on1", "Mtb growth Cornell": 8.367, "Mtb heat-shock": 0.896}
{"structure": "CC(C)N1CCC(C(=O)N2CCN(c3cccc(C(=O)O)c3)CC2)CC1", "Mtb heat-shock": -13.65}
{"structure": "Cc1cc(NCC2CCS(=O)(=O)C2)n2nc(C)cc2n1", "stereo": "centres undefined", "Mtb growth Cornell": -26.65, "Mtb heat-shock": -5.706}

5 of the entries, repeated:

| structure | Mtb growth Cornell | Mtb heat-shock |
|---|---|---|
| `O=C(CCCN1CCCCC1)N1CCN(C(=O)c2nc[nH]n2)CC1` | 24.52 | 1.84 |
| `CC(C)N1CCC(C(=O)N2CCN(c3cccc(C(=O)O)c3)CC2)CC1` | - | -13.65 |
| `COc1cccc(CNCc2cccnc2-n2cccn2)c1OC` | - | -22.26 |
| `CCN(C)CC(=O)N1CCc2nc(NC)nc(C(=O)N3CCCC3)c2C1` | 28.48 | 1.32 |
| `Cc1c(Cl)cccc1NC(=O)CCNc1ccc(C#N)cn1` | 23.43 | 18.54 |